From US20130023541A1, “VOLTAGE-GATED SODIUM CHANNEL BLOCKERS” (Glaxo Group Limited, priority 2010, published 2013)
Counter-ions that a name gives are not always drawn. Some results were stated once for a whole list of compounds, not compound by compound. At least one structure is not confirmed: it was looked up by name or label, or the drawing left a doubt.

Amino acid sequences for entries named in this document (tags omitted).
UniProt Q15858, whole entry: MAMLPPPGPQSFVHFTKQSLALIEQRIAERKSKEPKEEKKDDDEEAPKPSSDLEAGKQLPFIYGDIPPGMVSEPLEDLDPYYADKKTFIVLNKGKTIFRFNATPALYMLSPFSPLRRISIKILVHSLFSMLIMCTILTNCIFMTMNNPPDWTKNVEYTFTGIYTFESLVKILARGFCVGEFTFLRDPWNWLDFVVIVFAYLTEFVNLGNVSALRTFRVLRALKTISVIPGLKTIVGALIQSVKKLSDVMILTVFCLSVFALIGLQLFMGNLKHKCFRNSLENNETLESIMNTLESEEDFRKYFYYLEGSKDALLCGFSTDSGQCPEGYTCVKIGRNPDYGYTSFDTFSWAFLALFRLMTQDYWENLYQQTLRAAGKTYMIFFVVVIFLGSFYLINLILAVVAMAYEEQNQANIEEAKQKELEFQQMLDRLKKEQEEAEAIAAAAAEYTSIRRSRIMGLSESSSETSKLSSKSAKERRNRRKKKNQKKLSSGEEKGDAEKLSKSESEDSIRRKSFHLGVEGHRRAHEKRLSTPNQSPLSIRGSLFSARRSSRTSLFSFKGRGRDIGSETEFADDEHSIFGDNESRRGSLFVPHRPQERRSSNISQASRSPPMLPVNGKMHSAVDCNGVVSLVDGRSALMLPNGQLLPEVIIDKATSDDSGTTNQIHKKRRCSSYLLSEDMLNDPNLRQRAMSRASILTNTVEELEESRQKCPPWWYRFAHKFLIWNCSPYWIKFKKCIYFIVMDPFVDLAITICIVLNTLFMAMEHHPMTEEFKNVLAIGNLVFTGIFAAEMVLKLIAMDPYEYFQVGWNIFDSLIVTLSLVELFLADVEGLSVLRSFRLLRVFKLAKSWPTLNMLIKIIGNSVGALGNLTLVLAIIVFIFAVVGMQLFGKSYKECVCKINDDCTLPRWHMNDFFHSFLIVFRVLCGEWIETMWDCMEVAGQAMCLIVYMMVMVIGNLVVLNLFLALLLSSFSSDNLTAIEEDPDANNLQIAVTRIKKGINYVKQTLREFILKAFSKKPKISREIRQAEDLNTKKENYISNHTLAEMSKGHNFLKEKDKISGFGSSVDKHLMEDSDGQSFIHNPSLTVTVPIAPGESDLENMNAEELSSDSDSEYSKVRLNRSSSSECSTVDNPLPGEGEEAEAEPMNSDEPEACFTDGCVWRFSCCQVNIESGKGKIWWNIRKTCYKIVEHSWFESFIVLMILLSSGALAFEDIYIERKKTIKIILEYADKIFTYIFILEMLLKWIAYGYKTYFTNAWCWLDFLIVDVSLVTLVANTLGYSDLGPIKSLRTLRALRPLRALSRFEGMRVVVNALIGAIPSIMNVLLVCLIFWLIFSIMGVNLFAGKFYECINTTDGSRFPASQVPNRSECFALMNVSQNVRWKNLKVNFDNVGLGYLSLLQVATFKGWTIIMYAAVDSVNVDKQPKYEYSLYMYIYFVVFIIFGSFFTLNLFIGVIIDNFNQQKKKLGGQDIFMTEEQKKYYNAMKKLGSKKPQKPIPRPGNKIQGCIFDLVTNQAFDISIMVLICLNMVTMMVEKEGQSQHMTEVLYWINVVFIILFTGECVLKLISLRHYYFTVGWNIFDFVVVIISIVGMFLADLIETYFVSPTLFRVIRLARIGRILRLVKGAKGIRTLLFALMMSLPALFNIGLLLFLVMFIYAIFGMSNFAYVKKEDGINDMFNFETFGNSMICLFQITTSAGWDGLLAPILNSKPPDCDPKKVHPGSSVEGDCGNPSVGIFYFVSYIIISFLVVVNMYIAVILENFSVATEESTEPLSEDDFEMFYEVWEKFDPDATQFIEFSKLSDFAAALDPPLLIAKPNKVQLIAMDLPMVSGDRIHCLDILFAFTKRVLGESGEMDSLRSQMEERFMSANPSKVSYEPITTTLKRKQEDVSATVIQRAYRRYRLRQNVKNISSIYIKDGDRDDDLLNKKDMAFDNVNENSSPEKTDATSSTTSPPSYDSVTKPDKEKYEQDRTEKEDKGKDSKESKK

Target: NaV 1.7 (Homo sapiens, UniProt Q15858)
Assay: Use-dependent block of NaV1.7 currents, IonWorks Quattro planar array electrophysiology
Type: cell-based
Conditions: concentration producing 15% use-dependent inhibition, 10th versus 1st depolarizing pulse, 10 Hz; call rule not given here

Compound: CCN(Cc1ccc(CN2CCN(c3ncccc3C(=O)OC(C)C)CC2)cc1)Cc1ccccc1Cl [Example 499, 1-methylethyl 2-{4-[(4-{[[(2-chlorophenyl)methyl](ethyl)amino]methyl}phenyl)methyl]-1-piperazinyl}-3-pyridinecarboxylate]
- use-dependent pUD15 against NaV1.7: inactive

Compound: CCc1ccc(CN(CC)[C@H]2CCN(c3ncccc3C(=O)OC(C)C)C2)s1 [Example 17, 1-Methylethyl 2-((3S)-3-{ethyl[(5-ethyl-2-thienyl)methyl]amino}-1-pyrrolidinyl)-3-pyridinecarboxylate]
- use-dependent pUD15 against NaV1.7: 5-5.99

Compound: CCN(Cc1ccc(CN2CCN(c3ncccc3C(=O)OC(C)C)CC2)cc1)C(=O)c1c(F)cccc1Cl [Example 528, 1-methylethyl 2-{4-[(4-{[[(2-chloro-6-fluorophenyl)carbonyl](ethyl)amino]methyl}phenyl)methyl]-1-piperazinyl}-3-pyridinecarboxylate dihydrochloride]
- use-dependent pUD15 against NaV1.7 (dihydrochloride): inactive

Compound: CCN(Cc1ccc(CN2CCN(c3ncccc3C(=O)OC(C)C)CC2)cc1)Cc1ccccc1S(=O)(=O)N(C)C [Example 485, 1-methylethyl 2-{4-[(4-{[({2-[(dimethylamino)sulfonyl]phenyl}methyl)(ethyl)amino]methyl}phenyl)methyl]-1-piperazinyl}-3-pyridinecarboxylate]
- use-dependent pUD15 against NaV1.7: inactive

Compound: CC(C)OC(=O)c1cccnc1N1CCN(Cc2ccc3c(c2)CCN(Cc2c(F)cccc2Cl)C3)CC1 [Example 494, 1-methylethyl 2-[4-({2-[(2-chloro-6-fluorophenyl)methyl]-1,2,3,4-tetrahydro-6-isoquinolinyl}methyl)-1-piperazinyl]-3-pyridinecarboxylate]
- use-dependent pUD15 against NaV1.7: 5-5.99

Compound: CCN(Cc1ccc(OCc2ccccc2)cc1OC)[C@H]1CCN(c2ncccc2C(=O)OC(C)C)C1 [Example 180]
- use-dependent pUD15 against NaV1.7: 5-5.99

Compound: COc1ccccc1COc1cccc(CN2CCN(c3ncccc3C(=O)OC(C)C)CC2)c1 [Example 400]
- use-dependent pUD15 against NaV1.7: 5-5.99

Compound: CC(C)OC(=O)c1c(Oc2ccccc2)ccnc1N1CCN(Cc2ccccc2)CC1 [Example 98, 1-methylethyl 2-[4-(phenylmethyl)-1-piperazinyl]-4-(phenyloxy)-3-pyridinecarboxylate]
- use-dependent pUD15 against NaV1.7: 5-5.99

Compound: COc1cc(OCc2ccccc2)ccc1CN1CCN(c2ncccc2C(=O)OC(C)C)CC1 [Example 331, 1-methylethyl 2-[4-({2-(methyloxy)-4-[(phenylmethyl)oxy]phenyl}methyl)-1-piperazinyl]-3-pyridinecarboxylate]
- use-dependent pUD15 against NaV1.7: 4-4.99

Compound: CC(C)OC(=O)c1cccnc1N(C)[C@@H]1CCN(Cc2ccc(-c3cccs3)cc2)C1 [Example 272, 1-methylethyl 2-[methyl((3R)-1-{[4-(2-thienyl)phenyl]methyl}-3-pyrrolidinyl)amino]-3-pyridinecarboxylate]
- use-dependent pUD15 against NaV1.7: 5-5.99

Compound: CCOc1ccc(COc2cccc(CN3CCN(c4ncccc4C(=O)OC(C)C)CC3)c2)cc1 [Example 407]
- use-dependent pUD15 against NaV1.7: 5-5.99

Compound: CCN(Cc1ccc(CN2CCN(c3ncccc3C(=O)OC(C)C)CC2)cn1)Cc1c(F)cccc1Cl [Example 478, 1-methylethyl 2-{4-[(6-{[[(2-chloro-6-fluorophenyl)methyl](ethyl)amino]methyl}-3-pyridinyl)methyl]-1-piperazinyl}-3-pyridinecarboxylate trihydrochloride]
- use-dependent pUD15 against NaV1.7 (trihydrochloride): inactive

Compound: CC(C)OC(=O)c1cccnc1N1CCN(Cc2cccc(OCc3ccc(F)cc3)c2)CC1 [Example 96]
- use-dependent pUD15 against NaV1.7: 5-5.99

Compound: CC(C)OC(=O)c1cccnc1N1CCN(Cc2ccc(COc3ccc(F)cc3)cc2)CC1 [Example 203]
- use-dependent pUD15 against NaV1.7: 5-5.99

Compound: CC(C)OC(=O)c1cccnc1N1CCN(Cc2ccc(OCc3ccccc3Cl)cc2)CC1 [Example 316, 1-methylethyl 2-{4-[(4-{[(2-chlorophenyl)methyl]oxy}phenyl)methyl]-1-piperazinyl}-3-pyridinecarboxylate]
- use-dependent pUD15 against NaV1.7: 5-5.99

Compound: CCN(Cc1ccc(CN2CCN(c3ncccc3C(=O)OC(C)C)CC2)cc1)Cc1ccco1 [Example 228]
- use-dependent pUD15 against NaV1.7: 5-5.99

Compound: CCN(Cc1ccc(CN2CCN(c3ncccc3COC(=O)C3C(C)(C)C3(C)C)CC2)cc1)Cc1c(F)cccc1Cl [Example 505, (2-{4-[(4-{[[(2-chloro-6-fluorophenyl)methyl](ethyl)amino]methyl}phenyl)methyl]-1-piperazinyl}-3-pyridinyl)methyl 2,2,3,3-tetramethylcyclopropanecarboxylate]
- use-dependent pUD15 against NaV1.7: 5-5.99

Compound: CC(C)OC(=O)c1cccnc1N1CCN(Cc2ccc(OCc3ccc(Cl)c(Cl)c3)cc2)CC1 [Example 327, 1-methylethyl 2-{4-[(4-{[(3,4-dichlorophenyl)methyl]oxy}phenyl)methyl]-1-piperazinyl}-3-pyridinecarboxylate]
- use-dependent pUD15 against NaV1.7: 4-4.99

Compound: CCCCOc1cccc(CN(CC)[C@@H]2CCN(c3ncccc3C(=O)OC(C)C)C2)c1 [Example 58, 1-methylethyl 2-{(3R)-3-[{[3-(butyloxy)phenyl]methyl}(ethyl)amino]-1-pyrrolidinyl}-3-pyridinecarboxylate]
- use-dependent pUD15 against NaV1.7: 5-5.99

Compound: CCc1ccc(CN2CCN(c3ncccc3C(=O)OC(C)C)CC2)cc1 [Example 3, 1-Methylethyl 2-{4-[(4-ethylphenyl)methyl]-1-piperazinyl}-3-pyridinecarboxylate]
- use-dependent pUD15 against NaV1.7: 5-5.99

Compound: COc1cccc(OCc2ccc(CN3CCN(c4ncccc4C(=O)OC(C)C)CC3)cc2)c1OC [Example 195]
- use-dependent pUD15 against NaV1.7: 5-5.99

Compound: CCN(Cc1ccc(OCc2ccccc2)c(OC)c1)[C@H]1CCN(c2ncccc2C(=O)OC(C)C)C1 [Example 179]
- use-dependent pUD15 against NaV1.7: 5-5.99

Compound: CC(C)OC(=O)c1cccnc1N1CCN(Cc2cccc(OCc3ccc(F)cc3F)c2)CC1 [Example 404]
- use-dependent pUD15 against NaV1.7: 5-5.99

Compound: CCN(Cc1ccco1)[C@@H]1CCN(c2nccc(-c3ccccc3)c2C(=O)OC(C)C)C1 [Example 148, 1-methylethyl 2-[(3R)-3-[ethyl(2-furanylmethyl)amino]-1-pyrrolidinyl]-4-phenyl-3-pyridinecarboxylate]
- use-dependent pUD15 against NaV1.7: 5-5.99

Compound: CCN(Cc1ccc(CN2CCN(c3ncccc3C(=O)OC(C)C)CC2)cc1)Cc1ccoc1 [Example 222, 1-methylethyl 2-{4-[(4-{[ethyl(3-furanylmethyl)amino]methyl}phenyl)methyl]-1-piperazinyl}-3-pyridinecarboxylate]
- use-dependent pUD15 against NaV1.7: 5-5.99

Compound: CCN(Cc1cccc(CN(CC)[C@@H]2CCN(c3ncccc3C(=O)OC(C)C)C2)c1)Cc1c(F)cccc1Cl [Example 522, 1-methylethyl 2-{(3R)-3-[[(3-{[[(2-chloro-6-fluorophenyl)methyl](ethyl)amino]methyl}phenyl)methyl](ethyl)amino]-1-pyrrolidinyl}-3-pyridinecarboxylate]
- use-dependent pUD15 against NaV1.7: 5-5.99

Compound: CC(C)OC(=O)c1cccnc1N(C)[C@@H]1CCN(Cc2cccc(-c3ccc(F)cc3)c2)C1 [Example 275, 1-methylethyl 2-[{(3R)-1-[(4′-fluoro-3-biphenylyl)methyl]-3-pyrrolidinyl}(methyl)amino]-3-pyridinecarboxylate]
- use-dependent pUD15 against NaV1.7: 5-5.99

Compound: CC(C)OC(=O)c1cccnc1N1CCN(Cc2ccc(CNCc3c(F)cccc3Cl)cc2)CC1 [Example 527, 1-methylethyl2-(4-{[4-({[(2-chloro-6-fluorophenyl)methyl]amino}methyl)phenyl]methyl}-1-piperazinyl)-3-pyridinecarboxylate tri hydrochloride]
- use-dependent pUD15 against NaV1.7 (trihydrochloride): inactive

Compound: Cc1ccc(CN2CCN(c3nccc(C)c3C(=O)OC(C)C)CC2)s1 [Example 238]
- use-dependent pUD15 against NaV1.7: 5-5.99

Compound: CC(C)OC(=O)c1cccnc1N1CCN(Cc2ccc(OCc3ccccc3)c(OCc3ccccc3)c2)CC1 [Example 334, 1-methylethyl 2-[4-({3,4-bis[(phenylmethyl)oxy]phenyl}methyl)-1-piperazinyl]-3-pyridinecarboxylate]
- use-dependent pUD15 against NaV1.7: 5-5.99

Compound: CCOc1cc(CN2CCN(c3ncccc3C(=O)OC(C)C)CC2)ccc1OCc1ccccc1Cl [Example 312, 1-methylethyl 2-(4-{[4-{[(2-chlorophenyl)methyl]oxy}-3-(ethyloxy)phenyl]methyl}-1-piperazinyl)-3-pyridinecarboxylate]
- use-dependent pUD15 against NaV1.7: 4-4.99

Compound: CCN(Cc1ccccc1Oc1ccc(F)cc1)[C@H]1CCN(c2ncccc2C(=O)OC(C)C)C1 [Example 175]
- use-dependent pUD15 against NaV1.7: 5-5.99

Compound: COc1cccc(OCc2ccc(CN3CCN(c4ncccc4C(=O)OC(C)C)CC3)cc2)c1 [Example 188]
- use-dependent pUD15 against NaV1.7: 5-5.99

Compound: CC(C)OC(=O)c1cccnc1N(C)[C@@H]1CCN(Cc2ccccc2Oc2cccc(Cl)c2)C1 [Example 258, 1-methylethyl 2-[[(3R)-1-({2-[(3-chlorophenyl)oxy]phenyl}methyl)-3-pyrrolidinyl](methyl)amino]-3-pyridinecarboxylate]
- use-dependent pUD15 against NaV1.7: 5-5.99

Compound: CCN(Cc1ccc(CN2CCN(c3ncccc3COC(=O)C3CC3)CC2)cc1)Cc1c(F)cccc1Cl [Example 511, (2-{4-[(4-{[[(2-chloro-6-fluorophenyl)methyl](ethyl)amino]methyl}phenyl)methyl]-1-piperazinyl}-3-pyridinyl)methyl cyclopropanecarboxylate]
- use-dependent pUD15 against NaV1.7: 5-5.99

Compound: Cc1ccnc(N2CCN(Cc3cccc(F)c3)CC2)c1C(=O)OC(C)C [Example 235]
- use-dependent pUD15 against NaV1.7: 5-5.99

Compound: CCN(Cc1ccc(CN(CC)[C@@H]2CCN(c3ncccc3C(=O)OC(C)C)C2)cc1)Cc1c(F)cccc1Cl [Example 503, 1-methylethyl 2-{(3R)-3-[[(4-{[[(2-chloro-6-fluorophenyl)methyl](ethyl)amino]methyl}phenyl)methyl](ethyl)amino]-1-pyrrolidinyl}-3-pyridinecarboxylate]
- use-dependent pUD15 against NaV1.7: 4-4.99

Compound: CC(C)OC(=O)c1cccnc1N1CCN(Cc2cccc(OCc3cccc(N(C)C)c3)c2)CC1 [Example 403]
- use-dependent pUD15 against NaV1.7: 5-5.99
